Results published in patent US20020165135A1 (HESKA, published 2002).
Results are given in words; binding and its absence hold for the method and conditions named. Some entries that bind do so weakly or less than the wild type. Sequences can lack the tags named with a protein.

How the values were obtained:
[1] = target: T1, recombinant canine IL-13 (canine, UniProt Q9N0W9 21-131, limits assumed); assay: inferred from inhibition of IL-13 stimulated TF-1 cell proliferation
T1 sequence (looked up): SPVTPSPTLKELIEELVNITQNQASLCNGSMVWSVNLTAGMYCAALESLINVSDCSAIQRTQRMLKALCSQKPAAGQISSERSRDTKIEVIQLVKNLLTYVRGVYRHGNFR

[2] = target: T1, recombinant canine IL-13; assay: inferred from prevention of IL-13 stimulated antigen-specific IgE production by canine PBMC

B1: PCaIL-13Rα2-Fc-B9563 (Fc fusion)
chain: MSMLSNAEIKVNPPQDFEIVDPGYLGYLSLQWQPPLFPDNFKECTIEYELKYRNIDSENWKTIITKNLHYKDGFDLNKGIEAKINTLLPAQCTNGSEVRSSWAETTYWTSPQGNRETKIQDMDCVYYNWQYLVCSWKPGMGVHFDTNYQLFYWYEGLDHSAECTDYIKVNGKNMGCRFPYLESSDYKDFYICVNGSSESQPIRPSYFIFQLQNIVKPMPPDYLSLTVKNSEEINLKWNMPKGPIPAKCFIYEIEFTEDGTTWVTTTVENEIQITRTSNESQKLCFLVRSKVNIYCSDDGIWSEWSDEQCWKGDIWKETGSNTKVDKPVAKECECKCNCNNCPCPGCGLLGGPSVFIFPPKPKDILVTARTPTVTCVVVDLDPENPEVQISWFVDSKQVQTANTQPREEQSNGTYRVVSVLPIGHQDWLSGKQFKCKVNNKALPSPIEEIISKTPGQAHQPNVYVLPPSRDEMSKNTVTLTCLVKDFFPPEIDVEWQSNGQQEPESKYRMTPPQLDEDGSYFLYSKLSVDKSRWQRGDTFICAVMHEALHNHYTQISLSHSPGK
- binding [1]: binds
- binding [2]: binds
